Laboratory results reported in paper PMC4366279 (PLoS ONE, 2015).
No constants are given. Whether binding was seen depends on the method and setting. In cells and extracts the contact can be indirect. Some binding calls cover weakened binding; strength is not graded here.

Experiments:
Assay in all cases: pull-down; His6-TbREL1 TNT mixture mixed with an equal volume of untagged KREPA2 TNT mixture, captured on magnetic His-tag isolation beads (Dynabeads); binding buffer 50 mM NaPO4 pH 8.0, 300 mM NaCl, 0.01% Tween 20; 20-30 min at 4°C; three washes; [35S]-methionine-labelled proteins on 10% SDS-PAGE, PhosphorImager; KREPA2-only control for background
[1] = target: T1, TbREL1 E81A (Trypanosoma brucei) (UniProt P86926)
T1 sequence (chain, [35S]-methionine labelled): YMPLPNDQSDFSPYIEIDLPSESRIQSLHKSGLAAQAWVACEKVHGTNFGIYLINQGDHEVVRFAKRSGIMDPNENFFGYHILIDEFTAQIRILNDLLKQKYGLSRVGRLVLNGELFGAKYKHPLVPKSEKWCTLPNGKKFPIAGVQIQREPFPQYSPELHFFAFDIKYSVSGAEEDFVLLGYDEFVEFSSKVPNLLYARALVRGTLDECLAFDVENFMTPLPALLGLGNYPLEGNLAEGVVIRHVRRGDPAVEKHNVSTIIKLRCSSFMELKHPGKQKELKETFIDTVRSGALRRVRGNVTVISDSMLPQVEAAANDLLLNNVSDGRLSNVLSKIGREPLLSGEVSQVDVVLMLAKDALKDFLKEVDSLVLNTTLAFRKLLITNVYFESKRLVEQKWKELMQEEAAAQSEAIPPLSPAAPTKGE

[2] = target: T2, TbREL1 S303A (Trypanosoma brucei) (UniProt P86926)
T2 sequence (chain, [35S]-methionine labelled): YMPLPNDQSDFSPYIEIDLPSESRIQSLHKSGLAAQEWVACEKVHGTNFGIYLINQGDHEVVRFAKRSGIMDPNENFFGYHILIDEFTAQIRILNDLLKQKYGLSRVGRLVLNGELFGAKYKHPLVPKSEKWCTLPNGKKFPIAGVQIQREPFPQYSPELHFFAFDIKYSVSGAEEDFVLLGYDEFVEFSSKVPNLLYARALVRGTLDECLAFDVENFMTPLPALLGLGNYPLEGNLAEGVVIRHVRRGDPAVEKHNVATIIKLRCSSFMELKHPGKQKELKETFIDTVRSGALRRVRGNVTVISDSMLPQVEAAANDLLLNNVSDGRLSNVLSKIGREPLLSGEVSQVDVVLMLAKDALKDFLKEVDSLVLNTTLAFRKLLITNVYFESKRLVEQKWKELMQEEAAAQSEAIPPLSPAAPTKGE

[3] = target: T3, TbREL1 Q100A (Trypanosoma brucei) (UniProt P86926)
T3 sequence (chain, [35S]-methionine labelled): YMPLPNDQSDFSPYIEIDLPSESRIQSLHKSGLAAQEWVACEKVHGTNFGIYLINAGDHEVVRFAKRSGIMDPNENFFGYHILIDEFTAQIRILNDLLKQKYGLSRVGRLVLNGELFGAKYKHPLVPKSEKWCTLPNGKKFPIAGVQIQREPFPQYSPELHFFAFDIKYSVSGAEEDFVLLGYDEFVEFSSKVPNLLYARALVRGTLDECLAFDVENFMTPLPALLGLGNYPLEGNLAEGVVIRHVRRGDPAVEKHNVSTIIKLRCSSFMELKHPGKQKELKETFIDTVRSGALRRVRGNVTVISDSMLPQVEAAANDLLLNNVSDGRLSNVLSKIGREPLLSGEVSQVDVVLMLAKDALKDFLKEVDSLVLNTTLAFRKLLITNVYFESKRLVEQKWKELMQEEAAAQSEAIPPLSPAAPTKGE

[4] = target: T4, TbREL1 W442A (Trypanosoma brucei) (UniProt P86926)
T4 sequence (chain, [35S]-methionine labelled): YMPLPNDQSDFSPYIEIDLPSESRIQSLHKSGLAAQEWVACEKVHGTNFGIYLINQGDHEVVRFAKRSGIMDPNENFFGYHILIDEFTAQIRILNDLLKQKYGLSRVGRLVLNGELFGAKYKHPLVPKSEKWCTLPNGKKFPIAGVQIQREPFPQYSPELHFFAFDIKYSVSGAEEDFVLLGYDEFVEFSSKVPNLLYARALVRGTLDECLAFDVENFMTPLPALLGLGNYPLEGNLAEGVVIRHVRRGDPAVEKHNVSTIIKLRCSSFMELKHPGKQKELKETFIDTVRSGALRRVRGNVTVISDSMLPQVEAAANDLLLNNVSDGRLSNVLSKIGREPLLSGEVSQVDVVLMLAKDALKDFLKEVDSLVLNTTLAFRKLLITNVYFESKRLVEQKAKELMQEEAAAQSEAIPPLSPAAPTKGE

Measured: binding

B1: KREPA2 (natural protein)
chain: MYRRFFRSAAVKHLGTTSAQCLMRATKYPCGAMCRNASSCHPQTLGYQQRFQSTTDKKFHCSVCKKPFRLEMAAKLHLQQAHGGDGSVEAGPGPGVEASSVNVVSTPVPSPISPVERTFVDEEERRPRRMRPTPKPLHQPDRDIPAAAMEEMLGVWDKIGLNRLEGNFVHSTMVMKVFAAPPDVSEIPLYEHVAPEGENPFDSLDHMTTGTVDATYVGHDAFAEVDLVDPFVAAPDQTLNPFRAGKVRNPFTRISPTQREVVKPLQPPQPKEEPLKAPVTPFGQLPMFGQTREPSASFAAAAVSVQAAANPNEVSSPFAAAVSSSPFVGQVASPFAPAQDVAGSPFEASPCAASSPFVTAGGQETSPFAAPSTPASFGQGSLFPPMGTGAPGFTAITETEQRQQELEHGCPTCGKKFSTFEGAAMHSKSKHGIVLESKKVKDRLNRKGVPDLPAYVPSPVDLSSTSPFGTRSAIGASWAETELIPHAQCVSNITIVGRVLDVSQASENVSHVTVFVEGERSGEEETLTLCCFGEVSQKIRGTLKRNATIFASGTLRLHPVYEASNNKYYVSPVVHVSMPTGTLAVIT
modifications: [35S]-methionine labelled
notes: KREPA2 of T. brucei, the KREPA2 open reading frame, expressed untagged (63 kDa); source: in vitro translated (TNT reticulocyte lysate coupled transcription and translation system, Promega)
binds: all assays above
